PubChem BioAssay AID1159584 | Peter MacCallum Cancer Centre | 2016
Shown is a random part of about 18,000 reagents. Further read-outs or replicates are left out here. Not given: the amount of reagent, the time to read-out.

Test: 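Knock-downs that harm CDH1-null cells more than parental MCF10A cells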 (primary screen)
Cells: human MCF10A breast epithelial cells, parental and CDH1-null
Knock-down reagent: siRNA against human genes
Detection: 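Cell viability by CellTiter-Glo ATP luminescence, each line scaled to the mean of mock wells across plates, then CDH1-null over parental ratio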
Scale: CDH1-null / parental viability ratio: higher = CDH1-null cells survive relatively better than parental; CDH1-null viability vs mock: higher = more viable CDH1-null cells

gene symbol,CDH1-null / parental viability ratio,CDH1-null viability vs mock (fraction of mock)
GLB1 (galactosidase beta 1),1.04,0.82
FAM111A (FAM111 trypsin like peptidase A),0.97,0.68
ALPK1 (alpha kinase 1),0.8,0.64
THOC3 (THO complex subunit 3),1.07,0.73
OR51B6 (olfactory receptor family 51 subfamily B member 6),1.06,0.82
SLC67A2,0.97,0.7
OTX2 (orthodenticle homeobox 2),0.92,0.61
KRTAP2-4 (keratin associated protein 2-4),0.89,0.7
ZNF442 (zinc finger protein 442),0.99,0.81
ATP6V1G3 (ATPase H+ transporting V1 subunit G3),1.01,0.95
UBXN6 (UBX domain protein 6),1.79,0.75
PCM1 (pericentriolar material 1),0.91,0.75
ASB9 (ankyrin repeat and SOCS box containing 9),1.02,1
SPRN (shadow of prion protein),0.77,0.62
CHERP (calcium homeostasis endoplasmic reticulum protein),1.36,0.6
ANKRD17 (ankyrin repeat domain 17),1.16,0.88
S100B (S100 calcium binding protein B),1,0.84
NR2F1 (nuclear receptor subfamily 2 group F member 1),1.04,0.96
ACAN (aggrecan),0.88,0.82
"ST8SIA2 (ST8 alpha-N-acetyl-neuraminide alpha-2,8-sialyltransferase 2)",1.22,0.66
"ACAP1 (ArfGAP with coiled-coil, ankyrin repeat and PH domains 1)",1.18,0.9
ACADVL (acyl-CoA dehydrogenase very long chain),0.97,1.01
ZNF667 (zinc finger protein 667),0.95,0.7
ANKZF1 (ankyrin repeat and zinc finger peptidyl tRNA hydrolase 1),0.87,0.54
MRPL40 (mitochondrial ribosomal protein L40),0.77,0.54
NIPA1 (NIPA magnesium transporter 1),1.05,0.85
KIR2DL4,0.84,0.36
FCMR (Fc mu receptor),0.81,0.42
CLPP,0.86,0.57
NDRG3 (NDRG family member 3),1.07,1.07
IGF1 (insulin like growth factor 1),0.9,0.63
BRD3 (bromodomain containing 3),0.93,0.91
ZBTB4 (zinc finger and BTB domain containing 4),1.06,0.68
MANSC1 (MANSC domain containing 1),0.89,0.89
NTF3 (neurotrophin 3),0.85,0.66
CBARP (CACN subunit beta associated regulatory protein),1.2,0.84
KCNJ16 (potassium inwardly rectifying channel subfamily J member 16),1.05,0.82
"GAPT (GRB2 binding adaptor protein, transmembrane)",1.13,0.88
ZNF428 (zinc finger protein 428),1.21,1.02
POMGNT1,1,0.76
DYNLL1 (dynein light chain LC8-type 1),0.93,0.8
RNF152 (ring finger protein 152),1.04,1.04
SYNJ2BP (synaptojanin 2 binding protein),1.32,0.5
HNF4A (hepatocyte nuclear factor 4 alpha),1,0.9
MAGEA6 (MAGE family member A6),1.12,1.27
"MSMP (microseminoprotein, prostate associated)",1.5,0.87
AMOT (angiomotin),0.92,0.88
LYPD1 (LY6/PLAUR domain containing 1),1.4,0.56
OVCH2 (ovochymase 2),0.98,1.04
RXFP4 (relaxin family peptide/INSL5 receptor 4),1.37,1.04
SLC52A3,1.15,0.69
ZNF878 (zinc finger protein 878),0.83,0.7
TCAF1 (TRPM8 channel associated factor 1),0.68,0.34
SPINK5 (serine peptidase inhibitor Kazal type 5),0.93,0.54
NRAP (nebulin related anchoring protein),0.94,0.67
UBTFL7 (UBTF like 7 (pseudogene)),0.74,0.5
TMEM185A (transmembrane protein 185A),0.96,0.64
OR51I2 (olfactory receptor family 51 subfamily I member 2),0.77,0.24
BCL9L (BCL9 like),1.02,0.92
NDUFC2 (NADH:ubiquinone oxidoreductase subunit C2),0.97,0.96
"PPM1K (protein phosphatase, Mg2+/Mn2+ dependent 1K)",1.31,0.84
CTSD (cathepsin D),1.18,0.97
KSR1 (kinase suppressor of ras 1),1.12,0.92
MTRES1 (mitochondrial transcription rescue factor 1),1.03,0.65
CPNE8 (copine 8),1.11,1.08
CNGB1 (cyclic nucleotide gated channel subunit beta 1),1.33,1.05
ARFGAP3 (ARF GTPase activating protein 3),0.94,1.02
IRS4 (insulin receptor substrate 4),1.21,1.04
THEM5 (thioesterase superfamily member 5),1,0.78
TRIM42 (tripartite motif containing 42),1.02,0.96
RUFY2 (RUN and FYVE domain containing 2),1.14,1.12
STX6 (syntaxin 6),1.65,0.56
IAPP (islet amyloid polypeptide),1.11,0.52
FAM91A1 (family with sequence similarity 91 member A1),0.79,0.62
DGAT1 (diacylglycerol O-acyltransferase 1),1.03,0.8
NRBP2 (nuclear receptor binding protein 2),0.92,0.89
TPCN1 (two pore segment channel 1),1.12,0.72
"POLE (DNA polymerase epsilon, catalytic subunit)",0.94,0.66
TSPAN12 (tetraspanin 12),1.02,1.09
SLC2A4RG (SLC2A4 regulator),0.73,0.47
GJA9 (gap junction protein alpha 9),0.87,0.48
GAL3ST2 (galactose-3-O-sulfotransferase 2),0.81,0.6
B3GALNT1,0.92,0.92
EBLN2 (endogenous Bornavirus like nucleoprotein 2),1,0.6
LYRM1 (LYR motif containing 1),1.09,0.84
QDPR (quinoid dihydropteridine reductase),1.22,0.95
TCEAL9 (transcription elongation factor A like 9),0.88,1.07
